Measurements as given in paper PMC12639660.
No constants are given. Whether binding was seen depends on the method and setting. In cells and extracts the contact can be indirect. Some results given as binding are weak or reduced against the parent protein; the word gives no strength.

Sequences of proteins named here, by UniProt entry; tags and fusion partners are left off.
UniProt Q04206: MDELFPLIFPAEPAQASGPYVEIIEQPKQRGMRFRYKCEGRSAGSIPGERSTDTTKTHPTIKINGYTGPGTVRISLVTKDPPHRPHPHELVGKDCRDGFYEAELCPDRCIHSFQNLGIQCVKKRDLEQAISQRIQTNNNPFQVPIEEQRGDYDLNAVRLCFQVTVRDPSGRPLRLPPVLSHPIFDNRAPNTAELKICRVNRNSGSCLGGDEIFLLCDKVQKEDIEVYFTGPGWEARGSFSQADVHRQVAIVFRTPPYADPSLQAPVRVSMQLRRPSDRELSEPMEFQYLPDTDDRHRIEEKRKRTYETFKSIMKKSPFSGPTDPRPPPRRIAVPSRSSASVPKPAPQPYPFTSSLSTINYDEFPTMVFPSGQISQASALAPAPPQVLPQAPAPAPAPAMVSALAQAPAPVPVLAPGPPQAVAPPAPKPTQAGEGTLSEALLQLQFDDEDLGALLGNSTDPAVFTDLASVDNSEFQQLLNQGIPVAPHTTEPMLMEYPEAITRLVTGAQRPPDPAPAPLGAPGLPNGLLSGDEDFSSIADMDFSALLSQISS
UniProt Q09472: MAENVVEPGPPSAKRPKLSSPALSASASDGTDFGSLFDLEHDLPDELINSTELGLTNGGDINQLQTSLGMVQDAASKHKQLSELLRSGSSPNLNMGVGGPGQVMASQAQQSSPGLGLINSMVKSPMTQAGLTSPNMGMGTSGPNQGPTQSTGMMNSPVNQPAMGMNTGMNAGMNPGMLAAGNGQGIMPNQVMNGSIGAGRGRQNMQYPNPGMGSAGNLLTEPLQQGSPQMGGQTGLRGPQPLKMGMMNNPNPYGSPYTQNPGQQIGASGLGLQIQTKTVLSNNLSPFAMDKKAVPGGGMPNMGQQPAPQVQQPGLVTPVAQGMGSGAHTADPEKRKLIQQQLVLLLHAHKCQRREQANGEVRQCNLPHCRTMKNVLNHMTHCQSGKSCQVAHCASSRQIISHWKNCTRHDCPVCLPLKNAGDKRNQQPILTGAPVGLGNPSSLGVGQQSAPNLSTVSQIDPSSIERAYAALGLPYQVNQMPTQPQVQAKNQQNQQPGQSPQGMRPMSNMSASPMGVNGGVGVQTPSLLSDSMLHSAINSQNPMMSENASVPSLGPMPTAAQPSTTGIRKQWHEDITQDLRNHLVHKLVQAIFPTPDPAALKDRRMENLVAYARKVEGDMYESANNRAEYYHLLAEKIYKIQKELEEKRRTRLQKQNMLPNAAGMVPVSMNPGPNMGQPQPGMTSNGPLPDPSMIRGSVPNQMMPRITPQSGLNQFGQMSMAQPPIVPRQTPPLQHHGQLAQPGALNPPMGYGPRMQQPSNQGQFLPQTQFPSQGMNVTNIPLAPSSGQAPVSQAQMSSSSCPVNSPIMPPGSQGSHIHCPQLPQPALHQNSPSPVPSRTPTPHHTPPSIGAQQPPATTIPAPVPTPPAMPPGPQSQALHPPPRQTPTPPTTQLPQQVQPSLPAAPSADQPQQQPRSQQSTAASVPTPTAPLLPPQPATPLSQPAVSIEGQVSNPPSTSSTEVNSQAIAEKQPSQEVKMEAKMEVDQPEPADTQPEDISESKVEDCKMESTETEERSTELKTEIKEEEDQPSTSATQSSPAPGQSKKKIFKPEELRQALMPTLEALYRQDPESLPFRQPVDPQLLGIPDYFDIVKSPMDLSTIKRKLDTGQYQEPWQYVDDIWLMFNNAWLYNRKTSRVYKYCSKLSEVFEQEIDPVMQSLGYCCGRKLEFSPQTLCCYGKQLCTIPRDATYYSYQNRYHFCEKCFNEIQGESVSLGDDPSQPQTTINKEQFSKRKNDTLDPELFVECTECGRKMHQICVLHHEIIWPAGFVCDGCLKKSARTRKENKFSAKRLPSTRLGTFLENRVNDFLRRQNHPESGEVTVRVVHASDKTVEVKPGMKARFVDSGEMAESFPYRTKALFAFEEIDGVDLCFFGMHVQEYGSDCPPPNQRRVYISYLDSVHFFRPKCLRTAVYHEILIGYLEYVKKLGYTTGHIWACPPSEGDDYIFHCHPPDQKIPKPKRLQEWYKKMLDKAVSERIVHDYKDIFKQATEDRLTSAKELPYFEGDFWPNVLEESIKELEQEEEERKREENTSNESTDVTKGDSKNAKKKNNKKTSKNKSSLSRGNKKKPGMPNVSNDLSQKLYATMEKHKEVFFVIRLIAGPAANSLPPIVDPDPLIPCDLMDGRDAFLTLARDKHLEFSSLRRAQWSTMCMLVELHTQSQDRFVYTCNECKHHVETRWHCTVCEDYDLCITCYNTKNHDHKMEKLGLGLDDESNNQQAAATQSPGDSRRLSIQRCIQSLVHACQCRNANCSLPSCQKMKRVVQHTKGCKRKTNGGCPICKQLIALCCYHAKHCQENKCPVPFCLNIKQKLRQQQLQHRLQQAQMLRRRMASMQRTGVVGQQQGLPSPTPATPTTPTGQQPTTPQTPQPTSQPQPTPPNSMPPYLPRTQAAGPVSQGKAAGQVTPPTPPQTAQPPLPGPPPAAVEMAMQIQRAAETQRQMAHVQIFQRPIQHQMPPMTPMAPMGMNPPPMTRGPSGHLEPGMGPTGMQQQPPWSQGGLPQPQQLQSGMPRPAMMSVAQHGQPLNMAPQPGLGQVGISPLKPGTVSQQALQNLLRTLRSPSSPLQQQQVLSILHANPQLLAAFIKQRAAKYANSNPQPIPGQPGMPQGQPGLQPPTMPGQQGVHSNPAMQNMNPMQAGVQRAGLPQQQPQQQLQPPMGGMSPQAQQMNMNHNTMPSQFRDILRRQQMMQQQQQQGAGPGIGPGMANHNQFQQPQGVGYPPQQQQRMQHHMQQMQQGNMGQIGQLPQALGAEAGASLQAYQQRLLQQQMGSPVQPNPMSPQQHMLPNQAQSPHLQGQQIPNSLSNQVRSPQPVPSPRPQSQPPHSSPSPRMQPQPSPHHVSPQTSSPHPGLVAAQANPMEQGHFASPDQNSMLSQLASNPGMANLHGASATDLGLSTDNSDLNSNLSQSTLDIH

Assays:
[1] = biological target: NF-κB p65 (endogenous) (human (endogenous in A549 and A549/DR)) (UniProt Q04206); assay: condition: only in parental A549 cells (not DDP-resistant); co-IP; parental (DDP-sensitive) A549 cell lysate; anti-p65 antibody or normal rabbit IgG overnight at 4 °C, Western blot
[2] = biological target: NF-κB p65 (endogenous) (human (endogenous in A549 and A549/DR)) (UniProt Q04206); assay: co-IP; A549/DR cell lysate (NP-40 lysis buffer); precleared with protein A agarose, 5 µg anti-p65 antibody or normal rabbit IgG overnight at 4 °C, four washes, Western blot

Substance | binding [1] | binding [2]
p300 histone acetyltransferase (endogenous) (from UniProt Q09472 1-2414) (enzyme) | no binding | 
DNA-dependent protein kinase catalytic subunit (endogenous) (from UniProt P78527 1-4128) (enzyme) |  | binds
